# Primary screen of a compound library

Sequences of proteins named here, by UniProt entry; tags and fusion partners are left off. Residues count along the entry.
UniProt Q8IDJ8, 1-583: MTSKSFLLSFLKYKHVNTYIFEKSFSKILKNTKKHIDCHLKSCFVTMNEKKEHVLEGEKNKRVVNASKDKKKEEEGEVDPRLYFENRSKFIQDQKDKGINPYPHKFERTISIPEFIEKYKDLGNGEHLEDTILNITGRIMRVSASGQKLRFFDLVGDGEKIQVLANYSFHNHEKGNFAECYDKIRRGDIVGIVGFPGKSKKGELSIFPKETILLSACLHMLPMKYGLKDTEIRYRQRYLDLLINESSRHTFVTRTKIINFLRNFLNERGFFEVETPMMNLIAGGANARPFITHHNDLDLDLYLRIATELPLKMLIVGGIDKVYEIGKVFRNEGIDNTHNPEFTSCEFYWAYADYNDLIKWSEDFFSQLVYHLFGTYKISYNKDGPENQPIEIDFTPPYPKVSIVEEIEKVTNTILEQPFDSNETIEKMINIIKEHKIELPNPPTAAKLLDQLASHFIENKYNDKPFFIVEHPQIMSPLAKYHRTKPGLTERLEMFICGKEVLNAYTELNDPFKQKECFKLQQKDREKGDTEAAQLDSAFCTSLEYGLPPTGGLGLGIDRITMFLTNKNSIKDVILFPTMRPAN

Values are the deposited “Percent Effect”, in %.
The record does not define 0% and 100%; most values in the screen are far below 50% and negative numbers occur (in some assays of this library far below -100).
This is an unselected part of the compounds tested.

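Enzyme assay of the cytosolic lysyl-tRNA synthetase in 384-well plates, read by luminescence. Target: Lysine-tRNA ligase, Plasmodium falciparum 3D7 (UniProt Q8IDJ8). Concentration: 30 µM. Higher reads as stronger inhibition, judged from the few compounds that gave an IC50. About 69,000 compounds were tested under these conditions; 0.071% (about 49) showed 50% or more at least once.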

SMILES	percent effect
N#Cc1ccc(S(=O)(=O)NC(=O)COc2ccc3c(c2)CCC3)cc1	1.974%
Cc1nc(N2CCCCC2)ncc1-c1cc(O)[nH]n1	5.026%
CSCC(=O)N1CCOC(c2nc(C(C)C)n[nH]2)C1 (stereo not given)	7.178%
CC(C)=CCN1C(=O)[C@H]2CC[C@@H]1CN(c1ncccc1F)C2	8.376%
Cn1ncc2c(N3CC(N4CCCCC4)C3)nc(C3CCCC3)nc21	10.93%
CNC(=O)[C@H]1CC[C@@H]2[C@@H](CCN2CCOCc2ccccc2)O1	11.52%
CNC(=O)[C@@H]1CC[C@@H]2[C@@H](CCN2C(=O)N(C)C)O1	-2.279%
NC(=O)Cn1cc(NC(=O)N2CCCC(O)C2)cn1 (stereo not given)	1.548%
Cc1cnc(N2CCC3(CC2)CC3CN(C)Cc2cccnc2)nc1 (stereo not given)	1.835%
COCC1(C(=O)N2CCC(c3nccn3CC3CC3)CC2)CCC1	-1.679%
CC(C)C(=O)N1CCc2nc(C(=O)Nc3cccnc3)sc2CC1	6.137%
CS(=O)(=O)NCC1CCCN(C(=O)c2ccc3c(c2)CCC3)C1 (stereo not given)	2.893%
Cc1nncn1CCNC(=O)C(C)(C)c1cccc(C(F)(F)F)c1	3.261%
CC(C)Cc1n[nH]c(C2CC(=O)N(CC(C)C)C2)n1 (stereo not given)	1.78%
Cn1cccc1C(=O)NCc1cn2c(n1)CN(Cc1cccnc1)CC2	5.276%
Cc1ccc(C(=O)N2CCSCC2)cc1NC(C)C	0.6059%
OCC1(CC2CCCCO2)CCN(c2cnc3ccccc3n2)CC1 (stereo not given)	3.799%
Cc1ccccc1OC1CCN(CC(=O)Nc2cnn(C)c2C)CC1	1.947%
Cc1nn(C)c(N(C)C)c1CNC(C)c1cccc(OC(C)C)c1 (stereo not given)	4.729%
O=C(c1ccccc1F)N1CCN(c2ccc(-n3cccn3)nn2)CC1	0%
CCN1CCN(c2ccc(C(=O)NCCn3ccnc3)cc2F)CC1	-2.986%
CS(=O)(=O)N1C[C@@H]2COC[C@@H](CC(=O)N3CCCCO3)[C@@H]2C1	-2.783%
CC(=O)c1cn(CC(=O)N2CCC(O)(CO)CC2)c2ccccc12	-0.1834%
CC(C)=CCC1(C(=O)O)CCCN(c2ccnc(C)n2)C1 (stereo not given)	0.1748%
Cc1ncsc1CCN(C)Cc1cc2n(n1)CCN(Cc1ncc[nH]1)C2	4.254%
O=C1O[C@@H]2CN(Cc3ccsc3)C[C@@H]2N1Cc1ccccn1	2.41%
CS(=O)(=O)N1Cc2ccccc2CC2(CCN(Cc3ccncc3)C2)C1 (stereo not given)	0.2568%
O=C(NCC1CC1)[C@@H]1CCO[C@@H]2CCN(CCc3ccccc3)C[C@H]21	4.331%
COCCn1cc(C(=O)N2CCCC2c2noc(C)n2)ccc1=O (stereo not given)	-2.797%
O=C(CSc1nnc2n1N=CN(c1ccccc1)C2)c1ccccc1	-1.829%
O=C(CC1CC1)N1CC[C@H]2[C@@H]1CCC(=O)N2c1cccnc1	8.138%
O=C1CC(C2CCCCC2)c2c(n(C3CCCC3)[nH]c2=O)N1 (stereo not given)	3.843%
O=S(=O)(c1cccnc1)N1CCN(CC(O)c2ccccc2)CC1 (stereo not given)	6.499%
COc1ccc(-c2nnc([C@H]3CCN(CC4CC4)C3)o2)cc1	4.792%
O=C(C1CCCOC1)N1CCCCc2ccccc21 (stereo not given)	4.111%
O=C(NCc1cc2n(n1)CCCNC2)c1cn2cc(Cl)ccc2n1	1.534%
O=C(CSc1ccccc1Cl)NS(=O)(=O)c1ccc2c(c1)OCCO2	5.3%
O=C(Nc1nc2c(s1)CCC2)c1cccnc1N1CCOCC1	5.978%
CNC(=O)CN(C)C(=O)c1ccc(-c2nc(C)cs2)cc1	4.083%
COc1cccc(-c2cc(C(=O)N3N=C(C)CC3(O)C(F)F)[nH]n2)c1 (stereo not given)	-1.558%
Cc1noc(C)c1CN1CCCC2(C1)CN(c1nccs1)CCO2 (stereo not given)	6.517%
CN1CCC2(Cc3ccccc3CN(C(=O)CCN)C2)C1 (stereo not given)	-0.3968%
Cc1noc(C)c1C(=O)N1CCCC(c2c(C)c(=O)nc3n2CCC3)C1 (stereo not given)	5.631%
CN(C)S(=O)(=O)N1CC[C@]2(O)CCN(c3nc4ccccc4s3)C[C@@H]2C1	3.078%
Cn1cc(C2SCC(=O)Nc3c2c(=O)[nH]n3C2CCOCC2)cn1 (stereo not given)	4%
CN(C1CCCCC1)S(=O)(=O)N1CCN(Cc2ccon2)CC1	-1.757%
Cc1[nH]ccc1C(=O)NC1CCC(N2C(=O)CCC2=O)CC1 (stereo not given)	1.735%
OC(COCc1cccs1)Cn1cc(-n2cccc2)cn1 (stereo not given)	4.687%
CN(Cc1ccco1)C1CCC12CCN(C(=O)C1CCOCC1)CC2 (stereo not given)	3.212%
Cn1nc(COc2cccnc2)c2c1CCN(c1ncccn1)C2	3.776%
N#Cc1cccc(OCCCN2CCN(C(=O)c3ccoc3)CC2)c1	4.775%
Cc1ccccc1N1CCN(c2ccncn2)C(C)C1 (stereo not given)	5.423%
CN(C)C1(CNc2nccc(C3CCCC3)n2)CCOCC1	2.269%
CSCc1noc(CN2CC3(CCCC3)CC2=O)n1	3.507%
O=C1CCCN1C1CCN(S(=O)(=O)CCOc2ccc(F)cc2)CC1	-1.844%
CCn1cc(CN2CCN(C(=O)N3CCOCC3)CC2)cn1	-5.854%
O=C(Cc1ccccc1)N1CCOC(c2nc(-c3ncccn3)no2)C1 (stereo not given)	10.1%
CCC(CNC(=O)c1nc(=O)[nH][nH]1)Oc1cccc(C(F)(F)F)c1 (stereo not given)	6.428%
Cc1cnn(CCNCc2nnc(-c3occc3C)o2)c1	1.152%
Cn1nccc1C(=O)N1CC[C@]2(C[C@H](OCc3ccccn3)CO2)C1	6.897%
CN1CC2(CCNCC2)CC1C(=O)NCCCNc1cccnc1 (stereo not given)	0.9699%
CCNC(=O)CC1CC2(CCN(C(C)=O)CC2)c2cc(F)ccc21 (stereo not given)	2.389%
CCn1ncc(S(=O)(=O)N2CCCC3(CC=CNC3=O)C2)c1C (stereo not given)	3.472%
Cc1cnn(CC2CCCCN2C(=O)c2cccc3c2OCO3)c1 (stereo not given)	3.982%
CNC(=O)[C@H]1CCS(=O)(=O)[C@@H]2CN(Cc3ccc(OC)cc3)C[C@H]12	0.9995%
CC(C)n1ccnc1CN1CCOC(CCc2ccccc2)C1 (stereo not given)	6.469%
Cc1ccc(C(=O)Nc2nn[nH]n2)s1	2.667%
CC1CCCN(C(=O)c2csc(S(N)(=O)=O)c2)CC1 (stereo not given)	5.324%
CC(C)Oc1ncc(C(=O)N2CCCC(C(=O)O)C2)cc1Cl (stereo not given)	3.736%
Cc1nc(CN2CCCN(C(=O)COCC3CC3)CC2)cs1	-0.7524%
Cc1n[nH]cc1CNCc1ccnc(OCC(F)(F)F)c1	5.787%
O=C(O)c1csc(S(=O)(=O)N2CCN(Cc3ccc(Cl)cc3)CC2)c1	3.273%
CCSc1ncc(-c2cc(C3CCC3)nc(N)c2C#N)cn1	-0.8917%
COc1ccc(C(=O)O)cc1-c1cccc2c1CCNC2	4.843%
CC1(c2ccccc2)CCCN(C(=O)c2ccn3nnnc3c2)C1 (stereo not given)	6.135%
Cc1cnn(CC2CN(Cc3nc4ccccc4n3C)CCO2)c1 (stereo not given)	-1.151%
COCCN1CCN(C(=O)c2ccncc2F)Cc2cccnc21	6.076%
CCc1cc(N2CCC(F)(F)CC2)n2nc(C)c(C)c2n1	3.147%
O=C(CCN1CCCC1c1cccc2c1OCCO2)N1CCOCC1 (stereo not given)	2.127%
CC(C)S(=O)(=O)CCN1CCN(C(C#N)c2ccccc2)CC1 (stereo not given)	3.781%
Cc1cc(CN2CCN(C(=O)NCc3ccc(C)s3)CC2)no1	9.066%
Cc1nn(C)c(Cl)c1C1CCCN1C(=O)c1ccc2nncn2c1 (stereo not given)	-3.468%
CCCn1ccnc1CN1CCC(Oc2cccc(F)c2)(C(=O)O)CC1	9.847%
CCCn1cc(C(=O)NCCC(=O)NC2CCCCC2)c(C)n1	-1.508%
CNc1nc(CNC(=O)Nc2cccc(Cl)c2OC)cs1	-1.015%
CCn1ccnc1CN1CCCN(C(=O)Cc2ccc(C)nc2)CC1	-0.3073%
Cn1nc(CNC(=O)NCc2ccc(Cl)cc2)c2c1CCOC2	1.45%
CC(C)(NC(=O)C1CCCN(C2CCCC2)C1)c1nnc(N)s1 (stereo not given)	1.426%
N#Cc1ccsc1C(=O)N1CCCN(Cc2cscn2)CC1	-1.219%

The last 6 entries again:

| SMILES | percent effect |
|---|---|
| `CCCn1cc(C(=O)NCCC(=O)NC2CCCCC2)c(C)n1` | -1.508% |
| `CNc1nc(CNC(=O)Nc2cccc(Cl)c2OC)cs1` | -1.015% |
| `CCn1ccnc1CN1CCCN(C(=O)Cc2ccc(C)nc2)CC1` | -0.3073% |
| `Cn1nc(CNC(=O)NCc2ccc(Cl)cc2)c2c1CCOC2` | 1.45% |
| `CC(C)(NC(=O)C1CCCN(C2CCCC2)C1)c1nnc(N)s1` (stereo not given) | 1.426% |
| `N#Cc1ccsc1C(=O)N1CCCN(Cc2cscn2)CC1` | -1.219% |

From ChEMBL document CHEMBL3988442, “University of Dundee, Small-Polar-MMV Screening Library” (2021).